Results published in paper PMC8964110.
No constants are given. Whether binding was seen depends on the method and setting. In cells and extracts the contact can be indirect. Here binding means that the protein was enriched with, or labelled near, the bait; the list need not be complete.

Target: EhVps23 (E. histolytica (endogenous in HM1:IMSS trophozoites))
Test: affinity purification with mass spectrometry; immunoprecipitation with α-EhVps23 antibody and protein G-agarose from trophozoite lysates (10 mM Tris-HCl, 50 mM NaCl, protease inhibitors, freeze-thawing; pre-cleared with Protein-G, 2 h at 4°C); precipitate separated by gel electrophoresis, LC-ESI-HDMSE

B1: 3-oxo-5-alpha-steroid 4-dehydrogenase domain-containing protein (protein, UniProt C4M2S8 1-285)
chain: MVKILYKGNTYTVETELTKQVRELRFDIEKVVGLKACRQRLWYQKGEEKVVLEVDKTLQESGVTEDTPIEMKDLGAQLPFRFVYICEYVGPLALYVLIYLISLLAGYPSLLQNKLAVIMWVIHYIKRIVETIYVHEFGDMTMPVFNLYKNCTYYYGFAIAVAINVNFFPRENCSILIILGLIGMIVSIISNGYCHLLLKQLRTPGSQEWKMPHGFLFEYITCANYFCEIMTWIFFNVMTGFSFFGIAFSCCGIYQMREWAYQRHQKYLHMFPDYPKRWILIPFIY
binding: binds

B2: DEAD/DEAH box helicase (protein, UniProt C4LYI1 1-391)
chain: MASDIPTEQIESTVEAIQSFDAMGIKDELLRSIYSYGFEKPSAIQQRAIVPLMQGRNLIAQAQSGTGKTAAFSIGVLQQIDTNSKVCQAILLSPTRELALQTQEVVKNLSQYLDIKTFACIGGTSVRETIEALRNGVQVVVGTPGRVLDMLDRQAIDPNTVKYLILDEADEMLSQGFKDQMYTILKSLPSTVQVGMFSATMPADALDISKKFMENPVKILVKKEELTLEGIKQFYIDVVKDEYKIDTLIDLYQVISVNQSVIFCNSKNRVEWIQRRLQAHNYPVSITHGDLTMEERNNVLNEFRQGATRILITTDMLSRGIDVQQVSLVINFDMPVSDESYIHRIGRSARFGRKGVAIDFITTEEMDTINRLQKTYETKIVPLPKTFMDYL
binding: binds

B3: Filamin 2, putative (protein, UniProt C4LZ72 1-857)
chain: MSQPQWVLTQKKTFTKWANVQLSGAYVINDVETDLNDGLILISLFEALRKQKVQFRYNKKPKMRVAKLENTEQALNFIKADGVKLVNIDAQNIVDGNLTLILGLLWTLILKYQIAQNKMDASKNALLEWVNSKLTSRKIKNFSNDWNTGDVLNELIHALEPDFIDLADSASKGEGEERIQYGLSIAEDKMEIPAIIAAEDMALPEPDELSVMAYVSYFRHYEAEKEKRLGEAERLAREAELMRTPDPSKCVMSGPGLKTGEVLVPQEFTVTAKNCKGDQITQGGVTWNAHVFDPEGNEIPIEQKDNGDGTYDMTYVPQVPGKHKVEVAYEDKQLKQSPAIVMIEPAQADPENTYADGEGVEKCDAGKGPVKFTIHCVNKVGTAVPVTGAKFKVIIRSNDGNEIPHELVDNNDGTYTGSYVPVPGIDTVFITLLNQGIKGNPYQCKVFQDPSTACIGESYAFGPGVEGGVTIDKTPVFRIQGVTPEGKKCTKGGDEFKVEITDPEGKKQTAKVVDRHNGKYDVKYKAKVPGIYDVQVLLKNPENPEEFKDIKGSVYHPEIKDGVDAKKCVVDGEGIERPNDQEDNVFTIHAKNFKGEDVPVGGHPFQVIIDQVTESEKKKKKEGEKSSSSCSSSEEEEDDAEDEELFAFLNDGEEAEQGEEKAKEEGAEEPKEEEKKEVAEEEPKKEEEEKEEEKKEEGAEEPKEEIEGKKVAQKQQGSIPCTVIDNENGTYDVHYRAAAGKIRVKIELNKQRVGKSPYHLEVEEDADADESGVENFCFVVQAKNRRGQVQADGKAKFTVELDGPNGKLEEQKVKVKHLGEGKYFIRYSLPAEKGEYHINCKLNRRHIAGSPFKQTVN
binding: binds

B4: Calreticulin (protein, UniProt P83003 14-389)
chain: KVYFHETFENRDKWIDSTSSGKALGPFKIVSGKWYGDANNKGLQTSEDNKFYIAAAKLDEEFSNKDKNLIVQYNLKFEQGIDCGGGYIKLLPKKSIESEEKFTPESEYNIMFGPDVCGGSKRTHVIMNYKGKNNLIRKEIKCESDDISHLYTLIIRPNNTYVVKIDGVEKQEGKFDEDWDMLAPKEIDDPNVSKPADWVDEKEIDDPNDKKPEGWDDIPKTIVDPNAKKPEEWNDEDDGEWEAPTIENPEYKGEWKPKRIPNPAYKGEWVHPQIANPDYVYDPELYKYDSFAYIGIDVWQVKAGTIYDDILITDDIEEAEKEAKVILERNAAEKKMRDEIKEAEKQKEEEAKKEAEKQKEEETKEEIKKEENKEEL
binding: binds

B5: Aldehyde-alcohol dehydrogenase (protein, UniProt Q24803 1-870)
chain: MSTQQTMTVDEHINQLVAKAQVALKEYLKPEYTQEKIDYIVKKASVAALDQHCALAAAAVEETGRGIFEDKATKNIFACEHVTHEMRHAKTVGIINVDPLYGITEIAEPVGVVCGVTPVTNPTSTAIFKSLISIKTRNPIVFSFHPSALKCSIMAAKIVRDAAISAGAPENCIQWIEFGGIEASNKLMNHPGVATILATGGNAMVKAAYSSGKPALGVGAGNVPTYIEKTCNIKQAANDVVMSKSFDNGMICASEQAAIIDKEIYDQVVEEMKTLGAYFINEEEKAKLEKFMFGVNAYSADVNNARLNPKCPGMSPQWFAEQVGIKVPEDCNIICAVCKEVGPNEPLTREKLSPVLAILKAENTQDGIDKAEAMVEFNGRGHSAAIHSNDKAVVEKYALTMKACRILHNTPSSQGGIGSIYNYIWPSFTLGCGSYGGNSVSANVTYHNLLNIKRLADRRNNLQWFRVPPKIFFEPHSIRYLAELKELSKIFIVSDRMMYKLGYVDRVMDVLKRRSNEVEIEIFIDVEPDPSIQTVQKGLAVMNTFGPDNIIAIGGGSAMDAAKIMWLLYEHPEADFFAMKQKFIDLRKRAFKFPTMGKKARLICIPTTSGTGSEVTPFAVISDHETGKKYPLADYSLTPSVAIVDPMFTMSLPKRAIADTGLDVLVHATEAYVSVMANEYTDGLAREAVKLVFENLLKSYNGDLEAREKMHNAATIAGMAFASAFLGMDHSMAHKVGAAFHLPHGRCVAVLLPHVIRYNGQKPRKLAMWPKYNFYKADQRYMELAQMVGLKCNTPAEGVEAFAKACEELMKATETITGFKQANIDEAAWMSKVPEMALLAFEDQCSPANPRVPMVKDMEKILKAAYYPIA
binding: binds

B6: 3-ketoacyl-CoA synthase (protein, UniProt C4M2E3 1-495)
chain: MSCEQDKERSLKDYWYPKEIGEQNEILPSLKANVNRGSPLTKGIDFTVTTILYSIPLIILYISYKTWYSFLDVSNGIFVENNKCVLIVGFVIVLGLIAGGVYYWATRRRQVLLVDFAVAWPDDNLKITADGVRDIIVKCGLFEQQYIDFQTKLLYRTGLGNETYLPRPFHEYPFKTTMALSREECAIVMKNCCDQLFAQTGIDPTKDIDIVICNCSLFNPTPSISAMLMNMYKLKQTCKNYNLAGMGCSAGLVSIDLARDLLNVYPNINLLVFSTENITQNWYDGKEKGMLISNTLFRMGGAAVLLSNKNSWRKKAKFELLTTVRIHHGKYDDSYHAVFQFEDGEGKVGVKIGRELLKCVTRALTQNMNILMPQVISYRDMFRFVIFFIKQKLGKIDAKETFMPNFRETFQAYCIHAGGRAIIDGLQENLKLTDEDCMPSRATLYRVGNTSSSSVWYEMKFIERIDTLKKGDKVWQVAFGSGLKCNSCVWRKICN
binding: binds

B7: Ras family GTPase (EHI_058090) (protein, UniProt C4M8B0 1-184)
chain: MPVKDYKIVVLGSGAVGKSSITVRFVQGIFLVKYDPTIEDSYRKQLDLDGQQYVLEILDTAGTEQFTAMRDLYMKTGQGFVLVYSIIAQSTYNDLDPIHDQIVRVRDTENVPIIVVGNKCDLESQRIVSQDDGKALADKYGAEFLEVSAKAEIRISDIFTTLIKRINAMNQTKPKKKSGGCSLF
binding: binds

B8: 90 kDa heat shock protein (protein, UniProt C4M3S9 1-711)
chain: MLVFVTLLLLLLGVSAQEKKNFDVEVSRLMHLIIHSLYTNKEIFLRELISNASDAIDKLRFLCITDKSLNIDPSSFKIRIGIDAAKGSIYIIDNGIGMTKEELGKNLGTIAKSGTAEFIKKLESTEDHKNLIGQFGVGFYSSFLVAENVTVISRKAGLEESYAWESNGEGFVVRELKEDEVPMEEQGTKIILELKDKYFLDINVLKDLVKKYSEFIQFPIEMEITKKEEEEVEDTEAMKQEAQEKAKKRIEEGETSKTEEELIEEELKNVEVKHKFITKNITSWEAINVNKPIWMRSDVTDEEYNQFYKALTKDTKDPLAKIHFNTEGDSVFRALLYIPAEGPNPFAPKDPEKLKQMLRLYVRRVFVSGDFYTTLPDYLTFIRGVIDSDDLPLNVGRELIQENRHIDRIKRKVVRKVLQLIQDLSENNSTVFEAFMKEYSVQMKIGAITDVPNRGRIAKLLRYHSSISGNETMSFQDYIGRLKENQTEIYYVCADSLEEAKNSPVAQSAVNAGYEVIYMTDPVDEAASRSINTFEGKTLVDLGKDGFGVENDDKEYDELKEFIQENIKEISKVEVSNKLGNVAGVVISGKDGLTANMEKLIKAHATANKKDFNLENIKRVLIINGEHDIIIKINMLIKEDKKEQAIEFVKGMYNTALIQSGYTVTDSNEYAQWVQRMIEKELSEIEEVEKKEEKEEKTVGVDDIVNQKNEL
binding: binds

B9: Grainin 1 (protein, UniProt C4MAF9 1-215)
chain: MSLFAIQAAADAWVAQHITAAYQADPLIQREWWYPLATSISGTEFKELQDFFVKTDKDKSGSLELDELKKAKFPGGIKLDENACRHLMRIFDVDLSGSIGFYEYLALMKFVKLATAVFTKFDKDKSGNLDEQEIYAALPELGFDLNMKACKILIQLCGKGLLTKKIQISQFISCAAYLGQIRTIYQHGFKQAQGDFNRATFSKFMNLTLMLMDDA
binding: binds

B10: ATP-sulfurylase (protein, UniProt O76156 1-423)
chain: MSIQENLNNLIKPHGGKLIKTLKYGAERDECIKEAKSLPKIDISSREFGDLVMMGIGGFSPLNGFMKKEDWFSVCKNFTLADGTFWPIPITMSVSEEEAKKLKRGQKVALKYNKDINDISGTIEIDQVYEMTKKDKEMECKDIFTTTDSDHPGVKKVMEQKPFNVAGKVTTLSEGEFPIKYKGIYMTPEESRLNFAKKGWKTIAALQLRNPMHRSHEFLAKIAVEVCDGVFIHSLVGNLKPGDIPAEVRVKCIDALVDKYFVKKNVLQGGYPLDMRYGGPREALLHATFRQNYGCTHMIIGRDHAGVGDYYGPFDAQKIFDKIPYNADPKKRLLTQPMKIDWTFYCHKCDGMASLRTCPHTKKDRVIVSGTMVRKMLSEGKTLPDHFGRAESLKILADYYQHLDKSKKVTIKLQKFATGDAMK
binding: binds

B11: 40S ribosomal protein S8 (protein, UniProt C4M0Q2 1-237)
chain: MGITRDSRHKRRATGGKKNSMQKKKKNTMGRQPANTRLGAIRVHDVRCRYGIIKRRALRLENGNFSWASQSITKGTKILNVVYNASDNDFVRTNTLVKGAIIEIDPAPFRLWFLKFYGKDIASTDYYKSLESATFKTEKKVVLPKEEENKEKTIAQQIAETQVALMNPSKTMQKKYAKKLEVLKNMKFDEALLEGFQSGRVLACISSRPGQTGSVEGYILEGKELDFYSKKISDKKK
binding: binds

B12: Xaa-Pro dipeptidase (protein, UniProt C4M0S1 1-471)
chain: MSKIIIPDIPKICKSTTSHFLKYFKANQKPQDSIIFLEGGLELPFYDTDGEYLFRQESNFHYLFGVKEAGFYGIVKMDGTRILFLPQLPETLQIFLGPNLHPEDVKRMYGVEEAYYDSQIEEVLSKLNPSMIYLYAKGVNSDSGSQPAPIRTKAVYKYNTNETELHDVLFEARTVKTKEEIDFMRLAINGTAEAHRACMKYCKPGMYEFELEAEFYRVAYGQYGMRNFGYFPICASGNKGATMHYGHAGHPNRKIMEDGEMVLMDVGTECHRYATDLTLTYPINGKFTEQQKTIYNIVLSCNRGCEAAMKPGVKWYNIHELSNKLMLKGLLEAGLIKGDVEEMYKNDVHFYFMPHGIGHLIGIDTHDVGGFNLGIPRSDNCSLKKCRSNRVLEAGNIYTVEPGIYFIPFLLESGFKNEQVKKYLVENEIRKYWNFGGVRIEDDVLVTEEGVEVLDKDIPRTVEEIEAFMKH
binding: binds
